Data taken from PMC11602137.
Results are given in words; binding and its absence hold for the method and conditions named. In cells and extracts the contact can be indirect. Some results given as binding are weak or reduced against the parent protein; the word gives no strength.

Protein sequences, listed by entry. Tags and fused reporters are not part of them.
UniProt Q9UL03: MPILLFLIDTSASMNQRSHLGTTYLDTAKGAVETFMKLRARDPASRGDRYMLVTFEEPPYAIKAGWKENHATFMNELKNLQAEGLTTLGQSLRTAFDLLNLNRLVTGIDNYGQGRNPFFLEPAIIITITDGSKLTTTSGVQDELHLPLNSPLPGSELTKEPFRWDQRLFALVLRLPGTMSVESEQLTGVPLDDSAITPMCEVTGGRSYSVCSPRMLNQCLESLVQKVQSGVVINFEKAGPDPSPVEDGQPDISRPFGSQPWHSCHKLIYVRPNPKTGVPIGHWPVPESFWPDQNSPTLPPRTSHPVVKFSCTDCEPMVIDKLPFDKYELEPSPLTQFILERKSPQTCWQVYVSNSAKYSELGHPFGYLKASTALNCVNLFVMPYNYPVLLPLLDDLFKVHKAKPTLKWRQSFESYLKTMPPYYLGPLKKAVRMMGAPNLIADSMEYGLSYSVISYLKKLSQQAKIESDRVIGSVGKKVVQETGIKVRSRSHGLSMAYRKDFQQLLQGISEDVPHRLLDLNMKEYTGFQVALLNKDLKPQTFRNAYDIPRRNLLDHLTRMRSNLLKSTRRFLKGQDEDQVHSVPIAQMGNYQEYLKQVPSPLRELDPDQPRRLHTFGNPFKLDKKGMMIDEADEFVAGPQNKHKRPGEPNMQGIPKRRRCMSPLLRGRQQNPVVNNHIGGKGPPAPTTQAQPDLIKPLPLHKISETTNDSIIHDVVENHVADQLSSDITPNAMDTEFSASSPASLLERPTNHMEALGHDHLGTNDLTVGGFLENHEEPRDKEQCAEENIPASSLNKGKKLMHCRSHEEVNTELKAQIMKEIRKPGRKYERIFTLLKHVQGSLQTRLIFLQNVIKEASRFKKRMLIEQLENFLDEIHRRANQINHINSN
UniProt Q7Z333: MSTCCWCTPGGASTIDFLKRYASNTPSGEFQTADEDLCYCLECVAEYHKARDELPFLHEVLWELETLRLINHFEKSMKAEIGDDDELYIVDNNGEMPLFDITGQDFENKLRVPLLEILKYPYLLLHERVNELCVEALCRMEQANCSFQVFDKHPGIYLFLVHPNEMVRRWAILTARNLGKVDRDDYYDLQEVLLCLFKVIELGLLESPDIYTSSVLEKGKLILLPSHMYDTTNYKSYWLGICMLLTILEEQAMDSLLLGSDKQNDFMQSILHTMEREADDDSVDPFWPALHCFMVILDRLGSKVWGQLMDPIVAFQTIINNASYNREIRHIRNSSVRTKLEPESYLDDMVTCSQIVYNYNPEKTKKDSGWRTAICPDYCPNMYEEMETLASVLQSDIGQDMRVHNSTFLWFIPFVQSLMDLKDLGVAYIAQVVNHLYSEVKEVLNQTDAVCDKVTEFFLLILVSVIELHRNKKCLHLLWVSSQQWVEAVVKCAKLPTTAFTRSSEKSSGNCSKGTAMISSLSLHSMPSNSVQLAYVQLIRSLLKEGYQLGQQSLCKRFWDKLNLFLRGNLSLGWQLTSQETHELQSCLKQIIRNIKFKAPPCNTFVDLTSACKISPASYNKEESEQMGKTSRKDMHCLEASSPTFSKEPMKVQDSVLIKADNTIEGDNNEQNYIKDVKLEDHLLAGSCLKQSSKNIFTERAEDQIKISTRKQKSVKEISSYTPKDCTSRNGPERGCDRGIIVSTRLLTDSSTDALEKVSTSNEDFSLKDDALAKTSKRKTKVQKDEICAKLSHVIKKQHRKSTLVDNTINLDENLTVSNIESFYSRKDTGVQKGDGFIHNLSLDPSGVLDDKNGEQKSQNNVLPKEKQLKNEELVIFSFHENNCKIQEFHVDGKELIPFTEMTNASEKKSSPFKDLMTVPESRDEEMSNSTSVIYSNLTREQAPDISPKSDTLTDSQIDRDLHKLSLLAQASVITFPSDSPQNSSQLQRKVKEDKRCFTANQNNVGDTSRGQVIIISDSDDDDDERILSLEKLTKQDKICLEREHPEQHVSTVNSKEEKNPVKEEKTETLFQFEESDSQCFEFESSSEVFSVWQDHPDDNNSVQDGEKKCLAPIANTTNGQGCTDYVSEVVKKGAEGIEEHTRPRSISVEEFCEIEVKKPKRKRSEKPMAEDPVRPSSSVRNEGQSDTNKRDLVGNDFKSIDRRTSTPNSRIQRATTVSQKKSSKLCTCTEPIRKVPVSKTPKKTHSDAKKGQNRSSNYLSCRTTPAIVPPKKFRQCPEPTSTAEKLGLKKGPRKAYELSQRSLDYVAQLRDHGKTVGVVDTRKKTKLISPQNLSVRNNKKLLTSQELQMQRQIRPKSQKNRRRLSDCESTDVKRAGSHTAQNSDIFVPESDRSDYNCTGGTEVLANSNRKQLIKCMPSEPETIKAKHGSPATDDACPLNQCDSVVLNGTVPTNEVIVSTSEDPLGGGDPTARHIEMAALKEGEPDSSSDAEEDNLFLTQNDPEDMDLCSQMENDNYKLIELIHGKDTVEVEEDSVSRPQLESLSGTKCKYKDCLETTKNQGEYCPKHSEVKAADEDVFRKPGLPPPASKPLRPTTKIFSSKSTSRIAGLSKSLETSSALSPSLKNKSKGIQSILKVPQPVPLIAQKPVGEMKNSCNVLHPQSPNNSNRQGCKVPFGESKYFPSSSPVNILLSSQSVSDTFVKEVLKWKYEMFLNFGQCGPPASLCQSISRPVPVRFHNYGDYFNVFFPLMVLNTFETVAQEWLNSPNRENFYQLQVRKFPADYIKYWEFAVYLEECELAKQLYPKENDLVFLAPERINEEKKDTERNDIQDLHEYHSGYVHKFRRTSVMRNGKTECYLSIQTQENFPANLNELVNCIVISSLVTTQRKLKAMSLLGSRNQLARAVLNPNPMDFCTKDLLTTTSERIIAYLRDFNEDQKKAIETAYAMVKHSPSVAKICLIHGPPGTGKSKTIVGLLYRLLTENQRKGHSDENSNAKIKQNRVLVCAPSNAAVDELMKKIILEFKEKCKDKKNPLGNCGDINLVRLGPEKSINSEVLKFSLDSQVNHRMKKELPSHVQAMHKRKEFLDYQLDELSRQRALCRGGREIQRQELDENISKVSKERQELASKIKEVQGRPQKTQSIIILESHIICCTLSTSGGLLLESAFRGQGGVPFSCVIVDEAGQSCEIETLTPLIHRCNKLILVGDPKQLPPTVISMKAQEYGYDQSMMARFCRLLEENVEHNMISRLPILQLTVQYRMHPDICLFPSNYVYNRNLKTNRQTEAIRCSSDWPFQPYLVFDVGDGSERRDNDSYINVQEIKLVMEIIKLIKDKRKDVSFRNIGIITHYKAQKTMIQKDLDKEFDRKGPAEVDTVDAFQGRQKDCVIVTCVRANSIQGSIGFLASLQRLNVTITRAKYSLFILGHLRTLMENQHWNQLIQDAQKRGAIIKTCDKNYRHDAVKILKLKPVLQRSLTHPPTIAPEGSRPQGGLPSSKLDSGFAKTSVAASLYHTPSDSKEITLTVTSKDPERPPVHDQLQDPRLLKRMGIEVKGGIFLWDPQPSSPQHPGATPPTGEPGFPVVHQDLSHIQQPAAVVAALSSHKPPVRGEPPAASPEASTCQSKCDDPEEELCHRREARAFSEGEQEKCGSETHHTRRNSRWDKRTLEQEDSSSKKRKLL
UniProt Q68E01: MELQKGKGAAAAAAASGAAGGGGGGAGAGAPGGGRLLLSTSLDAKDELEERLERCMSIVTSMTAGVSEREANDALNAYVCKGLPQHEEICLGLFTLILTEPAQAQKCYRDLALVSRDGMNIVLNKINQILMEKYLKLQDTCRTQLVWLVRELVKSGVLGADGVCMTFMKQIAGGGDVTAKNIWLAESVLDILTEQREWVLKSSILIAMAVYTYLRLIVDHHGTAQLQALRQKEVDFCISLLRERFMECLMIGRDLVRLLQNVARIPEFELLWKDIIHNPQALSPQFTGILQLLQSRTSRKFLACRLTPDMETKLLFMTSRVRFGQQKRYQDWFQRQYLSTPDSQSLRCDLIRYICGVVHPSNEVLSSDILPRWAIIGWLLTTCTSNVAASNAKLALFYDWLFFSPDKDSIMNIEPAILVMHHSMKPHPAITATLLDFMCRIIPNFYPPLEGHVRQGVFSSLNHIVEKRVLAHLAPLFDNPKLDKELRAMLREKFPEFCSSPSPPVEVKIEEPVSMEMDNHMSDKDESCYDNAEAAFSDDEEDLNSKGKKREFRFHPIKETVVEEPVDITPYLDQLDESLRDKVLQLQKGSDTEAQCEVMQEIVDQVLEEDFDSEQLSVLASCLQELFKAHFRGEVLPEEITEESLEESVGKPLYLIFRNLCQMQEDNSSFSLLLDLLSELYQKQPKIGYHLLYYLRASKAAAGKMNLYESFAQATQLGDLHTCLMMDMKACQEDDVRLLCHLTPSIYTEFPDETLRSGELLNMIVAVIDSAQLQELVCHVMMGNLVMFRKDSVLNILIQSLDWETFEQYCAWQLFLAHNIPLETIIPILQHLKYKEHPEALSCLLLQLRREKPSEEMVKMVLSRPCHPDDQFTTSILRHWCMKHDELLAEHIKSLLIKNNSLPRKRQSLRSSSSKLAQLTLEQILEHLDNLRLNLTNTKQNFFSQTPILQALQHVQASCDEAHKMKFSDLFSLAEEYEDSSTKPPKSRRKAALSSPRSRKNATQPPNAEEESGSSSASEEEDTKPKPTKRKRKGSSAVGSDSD
UniProt Q9BQ15: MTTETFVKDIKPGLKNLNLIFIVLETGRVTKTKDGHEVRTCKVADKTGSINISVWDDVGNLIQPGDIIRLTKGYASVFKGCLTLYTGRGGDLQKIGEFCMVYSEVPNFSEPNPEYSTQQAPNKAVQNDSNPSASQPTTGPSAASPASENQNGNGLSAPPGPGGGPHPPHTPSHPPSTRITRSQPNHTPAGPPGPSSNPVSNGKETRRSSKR

How the values were obtained:
[1] = target: Integrator complex subunit 6 (INTS6) (human (endogenous in HeLa or U2OS cells; line not stated for the experiment)) (UniProt Q9UL03); test: co-IP; immunoprecipitation of endogenous proteins from benzonase-treated cell lysate (150 mM NaCl, 1% NP40), Protein A/G beads, western blot; with or without IR (10 Gy, 10 min post-IR)
[2] = target: Integrator complex subunit 6 (INTS6) (human (endogenous in HeLa or U2OS cells; line not stated for the experiment)) (UniProt Q9UL03); test: proximity ligation; Duolink in situ PLA on fixed, permeabilised cells with antibodies to the two endogenous proteins; with or without IR (10 Gy, 10 min post-IR); also with DRB, THZ1, INTS6 knock-down or RNaseH1 overexpression
[3] = target: senataxin (SETX) (human (endogenous in HeLa or U2OS cells, line not stated; endogenous in HEK293)) (UniProt Q7Z333); test: co-IP; immunoprecipitation of endogenous proteins from benzonase-treated cell lysate (150 mM NaCl, 1% NP40), Protein A/G beads, western blot; with or without IR (10 Gy, 10 min post-IR)
[4] = target: senataxin (SETX) (human (endogenous in HeLa or U2OS cells, line not stated; endogenous in HEK293)) (UniProt Q7Z333); test: proximity ligation; Duolink in situ PLA on fixed, permeabilised cells with antibodies to the two endogenous proteins; with or without IR (10 Gy, 10 min post-IR); also with DRB, THZ1, INTS6 knock-down or RNaseH1 overexpression
[5] = target: FLAG-tagged INTS6 (FLAG-INTS6) (UniProt Q9UL03); test: co-IP; anti-FLAG M2 affinity purification from nuclear lysate of HEK293 cells stably expressing FLAG-INTS6 or mock, FLAG-peptide elution, western blot of the eluates

binding [1] | binding [2] | binding [5] | Substance | binding [3] | binding [4]
binds | binds | – | INTS3 (from UniProt Q68E01 1-1043) | – | –
– | – | – | Integrator complex subunit 6 (INTS6) (from UniProt Q9UL03 1-887) | binds | binds
binds | binds | – | hSSB1 (NABP2) (from UniProt Q9BQ15 1-211) | binds | –
– | – | binds | senataxin (SETX) (from UniProt Q7Z333 1-2677) | – | –
